Patent US20260062705A1, “TREATMENT FOR OVARIAN CANCER WITH OLIGONUCLEOTIDES TARGETING FIBROBLAST ACTIVATION PROTEIN ALPHA” (UNIVERSITY OF FLORIDA RESEARCH FOUNDATION, INCORPORATED, priority 2022, published 2026)
At least one compound was matched to its structure with a doubt left.

Columns and labels:
OVCAR8 cells = experiment: CCK-8 cell viability assay; format: cell-based, human; details: 1 mM Batimastat or 1 μM Talabostat alone or in combination, 4 days, FIG. 9
Procedure: (§1) Briefly, cells were cultured in 96-well plates and CCK-8 reagent was added to cells. After 2-h incubation at 37° C., absorbance was measured using a Bio-Rad plate reader at 460 nm. In vitro invasion was assayed using Matrigel invasion chamber available from Cell Biolabs Inc (San Diego, CA) according to manufacturer's protocol. Flow cytometry-based cell apoptosis was determined using Dead Cell Apoptosis Kits with Annexin V (Thermo Fisher, Cat #V13242) according to manufacturer's protocol. Lipid raft fractions were prepared using Minute™ Plasma Membrane-Derived Lipid Raft Isolation Kit (Invent Biotechnologies, Plymouth, MN) according to manufacturer's protocol.

HEY cells = experiment: CCK-8 cell viability assay; format: cell-based, human; details: 1 mM Batimastat or 1 μM Talabostat alone or in combination, 4 days, FIG. 9
Procedure: as §1

## CNC(=O)[C@H](Cc1ccccc1)NC(=O)[C@H](CC(C)C)[C@H](CSc1cccs1)C(=O)NO [Batimastat]
OVCAR8 cells
  effect on survival: little effect
HEY cells
  effect on survival: little effect
